No constants are given. Whether binding was seen depends on the method and setting. Binding seen in cells or lysates may run through a third protein. Some binding calls cover weakened binding; strength is not graded here.
Experiments:
[1] = target: T7-tagged Rap1N17 (constitutively negative mutant of human Rap1a) (human) (UniProt P62834); assay: co-IP; COS cells transfected with FLAG-LOK together with T7-tagged Rap1V12 or Rap1N17; lysates immunoprecipitated with anti-T7, immunoblotted with anti-FLAG
[2] = target: T7-tagged Rap1V12 (constitutively active mutant of human Rap1a) (human) (UniProt P62834); assay: as above
[3] = target: Halo-tagged FLNa, wild type (UniProt P21333); assay: pull-down; lysates of COS cells transfected with Halo-FLNa (wild type or deletion mutants) and T7-Rap1V12 or N17, in one panel also αL and mRFP-β; precipitated with HaloLink resin; immunoblotted with anti-T7, Halo, mRFP, αL

Chains of the proteins cited; added tags and fusions are not shown. Lines headed by an entry give the natural chain unless they say otherwise; changes in a name come on top. A line that says so, or that is headed by a name, gives the form on record, which may keep a tag or linker. Residues count along the entry.
UniProt P62834: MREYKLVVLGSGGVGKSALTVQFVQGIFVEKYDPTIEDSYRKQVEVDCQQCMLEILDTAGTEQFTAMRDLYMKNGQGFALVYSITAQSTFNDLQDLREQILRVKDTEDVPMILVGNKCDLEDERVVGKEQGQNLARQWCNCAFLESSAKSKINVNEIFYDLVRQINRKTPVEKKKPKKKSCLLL
T7-tagged Rap1N17 (constitutively negative mutant of human Rap1a) (P62834, form named): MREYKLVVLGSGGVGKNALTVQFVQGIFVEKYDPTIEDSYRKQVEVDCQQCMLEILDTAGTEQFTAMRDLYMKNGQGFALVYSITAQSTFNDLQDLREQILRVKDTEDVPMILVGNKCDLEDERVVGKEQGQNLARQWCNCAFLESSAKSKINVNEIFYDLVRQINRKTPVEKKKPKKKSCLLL
T7-tagged Rap1V12 (constitutively active mutant of human Rap1a) (P62834, form named): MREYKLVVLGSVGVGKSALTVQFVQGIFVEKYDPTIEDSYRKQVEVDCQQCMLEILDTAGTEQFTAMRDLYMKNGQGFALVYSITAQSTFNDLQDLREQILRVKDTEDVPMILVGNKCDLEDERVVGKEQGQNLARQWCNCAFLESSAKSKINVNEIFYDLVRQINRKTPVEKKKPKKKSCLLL
UniProt P21333: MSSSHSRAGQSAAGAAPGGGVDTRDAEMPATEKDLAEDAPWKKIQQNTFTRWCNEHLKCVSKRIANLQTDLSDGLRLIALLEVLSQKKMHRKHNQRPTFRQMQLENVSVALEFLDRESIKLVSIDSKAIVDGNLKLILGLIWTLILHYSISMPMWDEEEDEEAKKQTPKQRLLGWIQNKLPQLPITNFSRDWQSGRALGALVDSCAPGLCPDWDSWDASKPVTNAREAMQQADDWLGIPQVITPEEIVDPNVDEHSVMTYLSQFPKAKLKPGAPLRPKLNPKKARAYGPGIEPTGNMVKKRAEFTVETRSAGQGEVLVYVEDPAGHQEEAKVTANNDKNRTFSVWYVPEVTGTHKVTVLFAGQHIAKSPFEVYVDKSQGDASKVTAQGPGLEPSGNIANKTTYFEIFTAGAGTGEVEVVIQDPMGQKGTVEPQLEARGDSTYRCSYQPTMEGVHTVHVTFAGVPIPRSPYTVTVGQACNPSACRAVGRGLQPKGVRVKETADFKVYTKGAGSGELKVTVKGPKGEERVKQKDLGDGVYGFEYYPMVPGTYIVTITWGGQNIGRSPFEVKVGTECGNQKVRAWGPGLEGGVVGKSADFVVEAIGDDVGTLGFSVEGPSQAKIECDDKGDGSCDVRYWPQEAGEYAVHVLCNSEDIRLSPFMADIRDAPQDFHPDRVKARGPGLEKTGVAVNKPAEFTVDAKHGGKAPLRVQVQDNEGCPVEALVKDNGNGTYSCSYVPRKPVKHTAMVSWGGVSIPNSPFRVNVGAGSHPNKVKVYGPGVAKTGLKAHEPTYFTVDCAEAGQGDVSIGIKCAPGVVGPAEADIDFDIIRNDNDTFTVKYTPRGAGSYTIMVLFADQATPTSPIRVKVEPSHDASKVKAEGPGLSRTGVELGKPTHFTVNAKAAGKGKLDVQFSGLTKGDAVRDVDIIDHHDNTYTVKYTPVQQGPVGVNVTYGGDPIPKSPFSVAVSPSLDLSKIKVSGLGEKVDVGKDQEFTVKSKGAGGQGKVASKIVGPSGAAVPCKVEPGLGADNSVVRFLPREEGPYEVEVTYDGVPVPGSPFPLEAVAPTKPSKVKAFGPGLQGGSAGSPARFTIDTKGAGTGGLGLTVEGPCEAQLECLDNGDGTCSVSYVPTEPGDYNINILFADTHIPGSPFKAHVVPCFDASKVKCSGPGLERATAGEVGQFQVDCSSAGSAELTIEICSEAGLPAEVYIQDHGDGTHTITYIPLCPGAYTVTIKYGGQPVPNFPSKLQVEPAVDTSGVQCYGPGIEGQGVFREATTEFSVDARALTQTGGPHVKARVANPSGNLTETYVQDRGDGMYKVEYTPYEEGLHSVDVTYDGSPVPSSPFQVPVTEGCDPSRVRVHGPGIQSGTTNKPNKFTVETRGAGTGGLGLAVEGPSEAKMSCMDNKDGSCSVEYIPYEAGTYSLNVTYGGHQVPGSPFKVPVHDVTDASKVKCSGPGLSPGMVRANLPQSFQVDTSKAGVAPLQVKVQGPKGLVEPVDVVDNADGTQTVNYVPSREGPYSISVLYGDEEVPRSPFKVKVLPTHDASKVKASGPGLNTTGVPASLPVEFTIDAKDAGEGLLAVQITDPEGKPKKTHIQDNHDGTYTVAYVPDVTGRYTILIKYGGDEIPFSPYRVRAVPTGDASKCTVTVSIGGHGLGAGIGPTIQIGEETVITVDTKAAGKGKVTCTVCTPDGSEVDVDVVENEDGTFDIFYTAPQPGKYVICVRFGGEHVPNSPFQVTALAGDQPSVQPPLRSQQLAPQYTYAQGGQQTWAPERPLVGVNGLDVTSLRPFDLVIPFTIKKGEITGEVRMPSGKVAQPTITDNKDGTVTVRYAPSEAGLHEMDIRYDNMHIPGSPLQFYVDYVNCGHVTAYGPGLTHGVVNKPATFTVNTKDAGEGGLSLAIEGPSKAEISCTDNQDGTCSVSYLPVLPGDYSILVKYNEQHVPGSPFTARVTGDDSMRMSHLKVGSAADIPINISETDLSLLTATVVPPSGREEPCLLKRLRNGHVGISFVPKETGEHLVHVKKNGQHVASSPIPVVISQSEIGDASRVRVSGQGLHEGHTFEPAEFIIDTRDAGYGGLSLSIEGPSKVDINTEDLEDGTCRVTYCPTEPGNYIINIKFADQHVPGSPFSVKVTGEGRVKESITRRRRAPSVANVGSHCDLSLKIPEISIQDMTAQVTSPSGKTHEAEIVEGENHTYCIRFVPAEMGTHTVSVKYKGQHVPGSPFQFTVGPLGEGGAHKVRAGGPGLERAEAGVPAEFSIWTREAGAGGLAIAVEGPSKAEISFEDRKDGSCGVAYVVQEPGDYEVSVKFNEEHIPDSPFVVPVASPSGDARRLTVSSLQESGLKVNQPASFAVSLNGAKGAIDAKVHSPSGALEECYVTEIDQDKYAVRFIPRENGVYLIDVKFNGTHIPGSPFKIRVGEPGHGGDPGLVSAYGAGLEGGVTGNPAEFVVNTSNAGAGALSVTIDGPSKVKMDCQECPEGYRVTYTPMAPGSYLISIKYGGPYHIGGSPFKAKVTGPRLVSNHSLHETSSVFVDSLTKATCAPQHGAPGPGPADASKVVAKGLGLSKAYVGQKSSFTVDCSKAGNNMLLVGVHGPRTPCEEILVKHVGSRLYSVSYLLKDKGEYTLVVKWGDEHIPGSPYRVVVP
UniProt O94804: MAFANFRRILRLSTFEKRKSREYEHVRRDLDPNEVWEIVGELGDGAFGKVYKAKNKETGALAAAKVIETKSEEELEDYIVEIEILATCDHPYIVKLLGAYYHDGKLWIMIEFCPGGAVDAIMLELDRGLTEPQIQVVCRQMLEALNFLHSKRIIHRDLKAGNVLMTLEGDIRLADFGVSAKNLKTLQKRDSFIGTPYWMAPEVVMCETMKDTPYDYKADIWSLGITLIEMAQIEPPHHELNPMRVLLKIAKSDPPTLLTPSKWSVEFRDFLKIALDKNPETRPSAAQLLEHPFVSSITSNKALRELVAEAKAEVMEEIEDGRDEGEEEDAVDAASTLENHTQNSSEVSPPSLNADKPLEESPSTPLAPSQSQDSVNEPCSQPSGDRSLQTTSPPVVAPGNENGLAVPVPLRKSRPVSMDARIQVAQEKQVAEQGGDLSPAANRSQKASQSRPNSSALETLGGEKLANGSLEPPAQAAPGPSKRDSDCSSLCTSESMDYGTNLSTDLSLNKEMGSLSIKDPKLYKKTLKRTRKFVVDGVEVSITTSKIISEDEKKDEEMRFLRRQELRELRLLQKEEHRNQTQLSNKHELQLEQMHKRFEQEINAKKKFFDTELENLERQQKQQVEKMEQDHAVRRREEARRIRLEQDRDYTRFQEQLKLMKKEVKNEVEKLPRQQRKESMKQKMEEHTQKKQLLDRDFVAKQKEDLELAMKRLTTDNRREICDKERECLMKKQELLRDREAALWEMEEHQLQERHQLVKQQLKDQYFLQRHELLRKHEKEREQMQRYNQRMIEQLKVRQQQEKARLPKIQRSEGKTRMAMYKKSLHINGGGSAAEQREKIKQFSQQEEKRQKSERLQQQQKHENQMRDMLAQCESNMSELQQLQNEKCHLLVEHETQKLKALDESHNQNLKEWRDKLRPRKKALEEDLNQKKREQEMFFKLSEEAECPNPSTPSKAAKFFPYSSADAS
UniProt P05107, residues 23-769: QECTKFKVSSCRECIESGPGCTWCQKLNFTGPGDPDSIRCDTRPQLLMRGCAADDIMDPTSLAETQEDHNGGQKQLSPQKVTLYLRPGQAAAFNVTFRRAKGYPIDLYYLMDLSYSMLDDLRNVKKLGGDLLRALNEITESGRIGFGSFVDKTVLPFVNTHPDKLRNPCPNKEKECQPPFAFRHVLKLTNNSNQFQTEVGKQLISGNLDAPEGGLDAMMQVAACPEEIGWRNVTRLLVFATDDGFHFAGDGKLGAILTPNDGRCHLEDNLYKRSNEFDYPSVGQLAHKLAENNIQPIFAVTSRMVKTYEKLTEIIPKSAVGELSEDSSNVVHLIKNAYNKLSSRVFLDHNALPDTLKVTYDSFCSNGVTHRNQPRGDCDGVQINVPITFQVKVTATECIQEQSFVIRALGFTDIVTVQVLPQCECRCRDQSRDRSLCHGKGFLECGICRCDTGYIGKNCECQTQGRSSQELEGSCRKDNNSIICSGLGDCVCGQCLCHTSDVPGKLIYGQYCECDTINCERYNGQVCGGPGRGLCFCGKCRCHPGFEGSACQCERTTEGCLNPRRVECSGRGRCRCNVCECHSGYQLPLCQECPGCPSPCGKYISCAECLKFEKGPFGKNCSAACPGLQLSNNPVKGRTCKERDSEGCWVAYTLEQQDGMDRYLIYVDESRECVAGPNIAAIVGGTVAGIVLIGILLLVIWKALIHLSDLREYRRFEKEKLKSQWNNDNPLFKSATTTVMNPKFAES

| binding [1] | binding [2] | binding [3] | Substance |
| --- | --- | --- | --- |
| binds | no binding |  | FLAG-tagged lymphocyte-oriented kinase (LOK), wild type, full-length (from UniProt O94804 1-968) (enzyme) |
|  |  | binds | T7-tagged Rap1V12 (constitutively active mutant of human Rap1a) (from UniProt P62834 1-184) |
|  |  | binds | mRFP-tagged β2 subunit of LFA-1 (expressed with αL in COS cells) (from UniProt P05107 23-769) (receptor) |

Reference: paper PMC4686857
